# Results deposited as PubChem BioAssay AID1224826 (NIAID, 2016)
# Purpose: 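Knock-downs that raise or lower Tnf reporter signal after endotoxin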 (primary screen)
# System: RAW264.7 G9 macrophages from mouse bearing reporters for p65 (GFP) and the Tnf promoter (mCherry)
# Reagent: siRNA pool against mouse genes, 100 nM
# Duration: 16 h of LPS stimulation, after 2 days of siRNA transfection
# Conditions: bacterial lipopolysaccharide (Salmonella minnesota R595), 10 ng/ml
# Measured: 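Nuclear mCherry signal of the Tnf promoter reporter measured by imaging after background removal, scaled to each plate median and turned into robust z-scores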
# Reading the numbers: Tnf reporter robust z-score: higher = stronger Tnf promoter reporter signal after LPS; Tnf reporter intensity: higher = stronger Tnf promoter reporter signal
# Call rule: 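Called active when robust z-score is at most -1.3, matching the median of the Tlr4 knock-down control, or over 3; control wells and wells with under 50 cells never active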
# Meaning of the calls: active = Tnf reporter clearly lowered or raised; inactive = no clear change in Tnf reporter
# The whole screen tested about 17,000 reagents; below is a random part of them. About 1,110 of all reagents (6.6%) were called active. 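Active means lowered or raised reporter signal; replicate intensities are raw and not normalised per plate.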 Entries without a mark were called inactive.
gene knocked down,PubChem SID,Tnf reporter robust z-score,fewer than 50 cells in well,"Tnf reporter intensity, replicate 1","Tnf reporter intensity, replicate 2"
Rdh7,SID315471161,2.23,enough cells in well,205,244
Tmem67,SID315481551,-0.24,enough cells in well,144,152
P4htm,SID315474975,-0.67,enough cells in well,73.7,122
Or4a70,SID315480584,1.86,enough cells in well,301,191
Mrps11,SID315473353,-1.04,enough cells in well,201,108
Or2at4,SID315480668,,fewer than 50 cells per well; well left out of calls,88.3,50.9
Tcea2,SID315469604,0.21,enough cells in well,238,151
Slc14a2,SID315470619,-0.47,enough cells in well,167,131
Sdcbp2,SID315478652,0.99,enough cells in well,183,158
Tmx3,SID315473350,2.03,enough cells in well,278,270
Ing2,SID315473768,1.35,enough cells in well,324,237
Tfrc,SID315469827,0.42,enough cells in well,258,158
Abca4,SID315465230,-0.16,enough cells in well,160,138
Usp49,SID315478381,-0.41,enough cells in well,106,125
Enpp5,SID315475882,-0.36,enough cells in well,198,206
Fam98b,SID315473458,0.87,enough cells in well,304,96.4
Cdc14b,SID315478185,-0.58,enough cells in well,180,184
Lcn4,SID315467738,0.71,enough cells in well,243,160
Ubap1,SID315472850,-0.74,enough cells in well,150,199
Ifne,SID315478781,4.29 (active),enough cells in well,477,288
Gigyf1,SID315471763,1.85,enough cells in well,193,260
Fkbp2,SID315466699,-0.04,enough cells in well,292,197
Hexa,SID315467185,0.77,enough cells in well,296,240
Fjx1,SID315466696,0.5,enough cells in well,271,172
Or10ag60,SID315480478,0.33,enough cells in well,207,168
1700020L24Rik,SID315472366,-0.51,enough cells in well,178,71.6
Cdh6,SID315465904,3.54 (active),enough cells in well,532,465
Or10aa1,SID315480363,1.18,enough cells in well,128,177
Ankrd42,SID315474792,0.55,enough cells in well,234,151
Ccdc39,SID315470922,-0.96,enough cells in well,115,99.3
Bpifb1,SID315478660,-0.77,enough cells in well,89,104
Cdca4,SID315474396,0.23,enough cells in well,255,233
Zkscan14,SID315472917,0.78,enough cells in well,152,42
Or4f56,SID315480081,-0.24,enough cells in well,170,99.7
Pcdha1,SID315477054,2.17,enough cells in well,285,201
Sf1,SID315470098,0.12,enough cells in well,44.2,133
Hoxd10,SID315467275,-0.08,enough cells in well,209,203
Hhat,SID315478532,3.03 (active),enough cells in well,357,133
Krt81,SID315472125,-0.62,enough cells in well,200,111
Sbf2,SID315481196,-0.54,enough cells in well,171,94.8
Vmn1r203,SID315477345,1.77,enough cells in well,165,163
Skp1,SID315469606,0.13,enough cells in well,302,215
Orc6,SID315471546,-0.37,enough cells in well,196,171
Chmp1a,SID315479205,,fewer than 50 cells per well; well left out of calls,38.5,0
C1qtnf1,SID315471668,0.54,enough cells in well,132,153
Mlec,SID315476794,-0.27,enough cells in well,227,45.6
Gdnf,SID315466879,-1.07,enough cells in well,204,113
Nkx6-1,SID315468186,-0.84,enough cells in well,153,146
Or5k14,SID315480603,2.24,enough cells in well,331,202
Or5k14,SID315480606,-1.34 (active),enough cells in well,104,67.9
Oas1c,SID315477022,-0.67,enough cells in well,178,88.9
Lce3c,SID315476022,0.14,enough cells in well,75.6,96.5
Klra15,SID315470627,-0.39,enough cells in well,201,136
Gdi2,SID315466875,0.86,enough cells in well,260,216
Gdi2,SID315466876,-0.87,enough cells in well,195,154
Tmprss11d,SID315478888,-0.96,enough cells in well,128,154
Stt3a,SID315467532,-0.86,enough cells in well,162,76.3
Robo2,SID315480809,,fewer than 50 cells per well; well left out of calls,93.4,120
Nmu,SID315471382,0.58,enough cells in well,292,215
A730036I17Rik,SID315481532,-1.24,enough cells in well,105,83.7
Stn1,SID315476729,-0.78,enough cells in well,202,54.3
Crip2,SID315473509,1.03,enough cells in well,300,184
Ceacam2,SID315470353,1.56,enough cells in well,217,315
Anxa4,SID315465422,-0.62,enough cells in well,131,137
Klhl8,SID315479877,-0.12,enough cells in well,202,114
Dkkl1,SID315470819,0.5,enough cells in well,256,205
Amer1,SID315474524,0.82,enough cells in well,297,96.3
Lrriq3,SID315474973,0.58,enough cells in well,246,67.8
Spint1,SID315469427,0.17,enough cells in well,120,91.6
Rpl39l,SID315473437,1.72,enough cells in well,235,138
Rasgrp4,SID315479043,0.08,enough cells in well,313,214
Rab3a,SID315468856,0.91,enough cells in well,384,282
Det1,SID315475292,-0.98,enough cells in well,170,41.6
Ace2,SID315473955,0.32,enough cells in well,195,178
Rab40c,SID315478351,-0.5,enough cells in well,264,165
